The text below walks through data of PMC8843744.

Protein sequences, listed by entry. Tags and fused reporters are not part of them.
UniProt Q7Z4V5: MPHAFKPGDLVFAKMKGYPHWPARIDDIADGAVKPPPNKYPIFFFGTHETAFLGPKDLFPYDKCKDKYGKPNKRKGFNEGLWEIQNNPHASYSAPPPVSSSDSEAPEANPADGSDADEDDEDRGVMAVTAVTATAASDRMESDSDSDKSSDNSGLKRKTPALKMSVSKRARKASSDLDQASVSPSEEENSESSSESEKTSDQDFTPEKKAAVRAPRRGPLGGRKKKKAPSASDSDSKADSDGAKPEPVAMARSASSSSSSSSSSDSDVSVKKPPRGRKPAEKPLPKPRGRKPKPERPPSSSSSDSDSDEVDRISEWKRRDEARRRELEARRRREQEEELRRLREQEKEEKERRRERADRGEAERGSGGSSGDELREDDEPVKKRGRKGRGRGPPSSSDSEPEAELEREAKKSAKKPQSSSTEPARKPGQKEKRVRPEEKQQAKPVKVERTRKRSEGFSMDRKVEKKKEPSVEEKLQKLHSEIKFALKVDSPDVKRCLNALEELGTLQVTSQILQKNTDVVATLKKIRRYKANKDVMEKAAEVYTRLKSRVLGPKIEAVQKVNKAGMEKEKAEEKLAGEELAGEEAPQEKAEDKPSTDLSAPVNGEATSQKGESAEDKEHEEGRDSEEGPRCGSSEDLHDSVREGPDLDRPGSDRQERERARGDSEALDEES
UniProt Q8IUF8: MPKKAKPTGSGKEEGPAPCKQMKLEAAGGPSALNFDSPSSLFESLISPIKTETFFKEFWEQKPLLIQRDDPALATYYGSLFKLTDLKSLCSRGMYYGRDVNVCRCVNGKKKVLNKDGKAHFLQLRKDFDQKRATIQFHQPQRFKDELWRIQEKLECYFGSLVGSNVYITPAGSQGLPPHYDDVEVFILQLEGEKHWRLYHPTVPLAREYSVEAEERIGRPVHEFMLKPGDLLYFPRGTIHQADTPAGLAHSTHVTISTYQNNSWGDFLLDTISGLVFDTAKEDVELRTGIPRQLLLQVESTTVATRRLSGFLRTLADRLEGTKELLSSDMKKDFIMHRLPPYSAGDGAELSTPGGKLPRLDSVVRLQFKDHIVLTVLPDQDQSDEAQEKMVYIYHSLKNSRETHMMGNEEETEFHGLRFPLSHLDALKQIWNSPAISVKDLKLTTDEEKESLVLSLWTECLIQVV

Results are given in words; binding and its absence hold for the method and conditions named. Binding seen in cells or lysates may run through a third protein. Some results given as binding are weak or reduced against the parent protein; the word gives no strength.

For assay [1], the target named is hepatoma-derived growth factor 2 (HRP2), Flag-tagged (UniProt Q7Z4V5). Description: co-IP; HEK293T cells, IP lysis buffer; Flag antibody or control IgG overnight at 4°C, protein A/G magnetic beads; Western blotting. For orientation: Immunoblotting shows a protein as a band on a membrane.
Assay [2] has as its target HRP2 in LP-1 cells (human (endogenous in LP-1)) (UniProt Q7Z4V5). Description: co-IP; LP-1 cells; Western blotting; bait antibody not told in the text shown.

Take Flag-MINA (from UniProt Q8IUF8 1-465): the binding entry in assay [1] is reported as “binds”.

On to “MINA in LP-1 cells (from UniProt Q8IUF8 1-465)”, for which, in assay [2], the binding result is recorded as “binds”.
